# According to patent publication US20060205755A1, “Novel farnesyl protein transferase inhibitors as antitumor agents” (Schering Corporation, priority 2004, published 2006):
# Some results were stated once for a whole list of compounds, not compound by compound.
# Target: purified human farnesyl protein transferase (Homo sapiens, UniProt P49354+P49356)
# Assay: FPT activity: transfer of [3H] farnesyl from [3H] farnesyl pyrophosphate to biotinylated H-ras peptide (SPA)
# Assay type: biochemical
# Details: 0.03 nM enzyme, 37° C., 60 minutes
# Experimental: FPT activity was determined by measuring the transfer of [^3H] farnesyl from [^3H] farnesyl pyrophosphate to a biotinylated peptide derived from the C-terminus of H-ras (biotin-CVLS). The reaction mixture contains: 50 mM Tris pH7.7, 5 mM MgCl2, 5 μM Zn^++, 5 mM DTT, 0.1% Triton-X, 0.05 μM peptide, 0.03 nM purified human farnesyl protein transferase, 0.180 μM [^3H] farnesyl pyrophosphate, plus the indicated concentration of tricyclic compound or vehicle control in a total volume of 100 μl. The reaction was incubated in a Vortemp shaking incubator at 37° C., 45 RPM for 60 minutes and stopped with 150 μl of 0.25 M EDTA containing 0.5% BSA and 1.3 mg/ml Streptavidin SPA beads. Radioactivity was measured in a Wallach 1450 Microbeta liquid scintillation counter. Percent inhibition was calculated relative to the vehicle control.
row,SMILES,IC50
1,"Cn1cncc1C(NC(=O)OC1(C)CC1)C1=Cc2cccnc2C(C2CCN(C(=O)OC3(C)CC3)CC2)c2ccc(Cl)cc21 (single isomer, unassigned) [Example 4]",≥ 0.9 nM
2,Cn1cncc1C(NC(=O)OC1(C)CC1)C1=Cc2cccnc2C(=C2CCN(C(=O)OC(C)(C)C)CC2)c2ccc(Cl)cc21 (centres unmarked) [Example 1],≥ 0.9 nM
3,Cn1cncc1C(NC(=O)OC1(C)CC1)C1=Cc2cccnc2C(=C2CCN(C(=O)OC3(C)CC3)CC2)c2ccc(Cl)cc21 (centres unmarked) [Example 2],≥ 0.9 nM
4,Cn1cncc1C(NC(=O)OC1(C)CC1)C1=Cc2cccnc2C(O)(C2CCN(C(=O)OC(C)(C)C)CC2)c2ccc(Cl)cc21 (centres unmarked) [Example 5],≥ 0.9 nM
5,Cn1cncc1C(NC(=O)OC1(C)CC1)C1=Cc2cccnc2C(O)(C2CCN(C(=O)OC3(C)CC3)CC2)c2ccc(Cl)cc21 (centres unmarked) [Example 6],≥ 0.9 nM
